Reference: PMC11909191

Biological target: PET100-GST (human)
Experiment: pull-down; GST-tagged protein on GST magnetic beads incubated with His-tagged protein (1-3 ug) in 500 uL binding buffer (50 mM Tris-HCl pH 7.9, 10% glycerol, 100 mM KCl, 5 mM MgCl2, 10 mM beta-mercaptoethanol, 0.1% NP-40), 2 h at 4 °C; washed with NETN buffer; immunoblot; both purified

binding: binds
B1: MBP-pep-nc-ZNF436-AS1-His (peptide, UniProt Q8NC38 1-126)
chain: MLAVPVRLKVGSRKPEWGTNRLTSCPAKDPLDRRLQNLRDRERVPEPQRSLRPGVQEDSREHGQVPEVSDPQVDLEFVDLQAKPRYRRLILKTQIPEASDSQAAQKPQAHRQIPETTEAGRETTSN

No constants are given. Whether binding was seen depends on the method and setting. Binding can be weak; no strength is given. Where a sequence is shown, tags or fusion partners need not be part of it.
